# Test results as given in US8420659B2, “Compositions and methods for inhibition of the JAK pathway” (Rigel Pharmaceuticals, Inc., priority 2008, dated 2013).
# Some entries share one result that the patent states for a list of compounds.
# System: Human primary T-cells
# Experiment: Cell Titer-Glo, Human primary T Cell, IL2 (proliferation)
# Type: cell-based
# Settings: IL-2 stimulated primary T-cell proliferation, 72 hours at 37° C., Cell Titer-Glo luminescence
# Description: The activity of the compounds described herein can further be characterized by assaying the effect of the 2,4-pyrimidinediamine compounds described herein on the proliferative response of primary human T-cells. In this assay, primary human. T-cells derived from peripheral blood and pre-activated through stimulation of the T-cell receptor and CD28, proliferate in culture in response to the cytokine Interleukin-2 (IL-2). This proliferative response is dependent on the activation of JAK1 and JAK3 tyrosine kinases, which phosphorylate and activate the transcription factor Stat-5. The primary human T-cells are incubated with the 2,4-pyrimidinediamine compounds in the presence of IL-2 for 72 hours, and at the assay endpoint intracellular ATP concentrations are measured to assess cell viability. A reduction in cell proliferation compared to control conditions is indicative of inhibition of the JAK kinase pathway.
# Cell Titer-Glo, Human primary T Cell, IL2
# Materials and Reagents: Dimethyl Sulfoxide (DMSO) (Sigma-Aldrich, Cat# D2650) was used as a control. The following reagents were used: Ficoll Hypaque (Amersham Pharmacia, Cat#17-1440-03), Anti-Human CD3 (BD Pharmingen, Cat#555336), Anti-Human CD28 (Immunotech, Cat# IM1376), Yssel's Media (Gemini Bio-products, Cat#400-103), RPMI 1640 (Cellgro, Cat#10-040-CM), Fetal Bovine Serum (JRH, Cat#12106-500M), and […] (R& D Systems, Cat#202-IL).
# Human primary T-cells were isolated and cultured according to the following procedure. Whole blood was obtained from a healthy volunteer, mixed 1:1 with PBS, layered on to Ficoll Hypaque in 2:1 blood/PBS:ficoll ratio and centrifuged for 30 min at 4° C. at 1750 rpm. The lymphocytes at the serum: ficoll interface were recovered and washed twice with 5 volumes of PBS. The cells were resuspended in Yssel's medium containing 40 U/mL IL-2 and seeded into a flask pre-coated with […] anti-CD3 and […] anti-CD28. The primary T-cells were stimulated for 3-4 days, then transferred to a fresh flask and maintained in RPMI with 10% FBS and 40 U/mL IL-2.
# Primary T-cells were starved of IL-2 overnight and resuspended in Yssel's medium at 2×10^6 cells/mL. 50 μL of cell suspension containing 80 U/mL IL-2 was added to each well of a flat bottom 96 well black plate. For the unstimulated control, IL-2 was omitted from the last column on the plate. Compound was serially diluted in DMSO from 5 mM in 3-fold dilutions, and then diluted 1:250 in Yssel's medium. 50 μL of 2× compound was added per well in duplicate and the cells were allowed to proliferate for 72 hours at 37° C.
# Proliferation was measured using Cell Titer-Glo. The substrate was thawed and allowed to come to room temperature. After mixing the Cell Titer-Glo reagent and diluent together, 100 μL was added to each well. The plates were mixed on an orbital shaker for two minutes to induce lysis and incubated at room temperature for an additional ten minutes to allow the signal to equilibrate. The Luminescence was read on the Wallac Plate Reader (Wallac Victor2 1420 Multilabel Counter).
row,Structure (SMILES),IC50 [nM]
1,"CN(C)S(=O)(=O)NCc1ccc(Nc2nc(Nc3ccc(S(N)(=O)=O)cc3)ncc2Cl)cc1 [Compound I-2, N2-(4-Aminosulfonylphenyl)-5-chloro-N4-[4-[(N,N-dimethylsulfamoylamino)methyl]phenyl]-2,4-pyrimidinediamine]",< 500
2,"CN(C)S(=O)(=O)NCc1ccc(Nc2nc(Nc3cccc(S(N)(=O)=O)c3)ncc2Cl)cc1 [Compound I-1, N2-(3-Aminosulfonylphenyl)-5-chloro-N4-[4-[(N,N-dimethylsulfamoylamino)methyl]phenyl]-2,4-pyrimidinediamine]",< 500
3,CCNS(=O)(=O)NCc1ccc(Nc2nc(Nc3cc(C)c(S(N)(=O)=O)c(C)c3)ncc2Cl)c(C)c1 [Compound I-17],< 500
4,"Cc1cnc(Nc2ccc(S(N)(=O)=O)cc2)nc1Nc1ccc(CNS(=O)(=O)N(C)C)cc1 [Compound I-4, N2-(4-Aminosulfonylphenyl)-N4-[4-[(N,N-dimethylsulfamoylamino)methyl]phenyl]-5-methyl-2,4-pyrimidinediamine]",< 500
5,"Cc1cnc(Nc2cccc(S(N)(=O)=O)c2)nc1Nc1ccc(CNS(=O)(=O)NC2CC2)cc1 [Compound I-21, N2-(3-Aminosulfonylphenyl)-N-4-[4-[(N-cyclopropylsulfamoylamino)methyl]phenyl]-5-methyl-2,4-pyrimidinediamine]",< 500
6,"NS(=O)(=O)c1cccc(Nc2ncc(Cl)c(Nc3ccc(CNS(=O)(=O)NC4CC4)cc3)n2)c1 [Compound I-18, N2-(3-Aminosulfonylphenyl)-5-chloro-N-4-[4-[(N-cyclopropylsulfamoylamino)methyl]phenyl]-2,4-pyrimidinediamine]",< 500
7,"CCNS(=O)(=O)NCc1ccc(Nc2nc(Nc3cccc(S(N)(=O)=O)c3)ncc2C)cc1 [Compound I-7, N2-(3-Aminosulfonylphenyl)-N-4-[4-[(N-ethylsulfamoylamino)methyl]phenyl]-5-methyl-2,4-pyrimidinediamine]",< 500
8,"Cc1cnc(Nc2cccc(S(N)(=O)=O)c2)nc1Nc1ccc(CNS(=O)(=O)N(C)C)cc1 [Compound I-3, N2-(3-Aminosulfonylphenyl)-N-4-[4-[(N,N-dimethylsulfamoylamino)methyl]phenyl]-5-methyl-2,4-pyrimidinediamine]",< 500
9,"CCNS(=O)(=O)NCc1ccc(Nc2nc(Nc3ccc(S(N)(=O)=O)cc3)ncc2Cl)cc1 [Compound I-6, N2-(4-Aminosulfonylphenyl)-5-chloro-N-4-[4-[(N-ethylsulfamoylamino)methyl]phenyl]-2,4-pyrimidinediamine]",< 500
10,"Cc1cnc(Nc2cc(C)c(S(N)(=O)=O)c(C)c2)nc1Nc1ccc(CNS(=O)(=O)NC2CC2)cc1 [Compound I-23, N2-(4-Aminosulfonyl-3,5-dimethylphenyl)-N-4-[4-[(N-cyclopropylsulfamoylamino)methyl]phenyl]-5-methyl-2,4-pyrimidinediamine]",< 500
11,"Cc1cc(CNS(=O)(=O)NC2CC2)ccc1Nc1nc(Nc2cccc(S(N)(=O)=O)c2)ncc1Cl [Compound I-24, N2-(3-Aminosulfonylphenyl)-5-chloro-N-4-[4-[(N-cyclopropylsulfamoylamino)methyl]-2-methylphenyl]-2,4-pyrimidinediamine]",< 500
12,"Cc1cc(Nc2ncc(Cl)c(Nc3ccc(CNS(=O)(=O)NC4CC4)cc3)n2)cc(C)c1S(N)(=O)=O [Compound I-20, N2-(4-Aminosulfonyl-3,5-dimethylphenyl)-5-chloro-N-4-[4-[(N-cyclopropylsulfamoyl-amino)methyl]phenyl]-2,4-pyrimidinediamine]",< 500
